Here are results for 85 compounds from PMC12548414.

Screen size: about 1,600 compounds; about 20 (1%) showed an effect of 50% or more. Some of the results follow.

The assay has as its system T1, E. coli pLC1021 (luc-trpAt trans-translation reporter).
T1 construct: pLC1021 luc-trpAt reporter strain
More on the design: species or system Escherichia coli pLC1021; luc-trpAt non-stop luciferase reporter; luminescence rises when trans-translation is inhibited; normalized to KKL-35 and DMSO. As to conditions: reporter signal, KKL-35 = 100%; rise means trans-translation inhibition; 2 h, 20 µM. Summed up: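 Cells carrying the non-stop luc-trpAt reporter were exposed to 20 µM compound for 2 h at room temperature, then Bright-Glo was added and luminescence read at 560 nm after 10 min. Signals were normalised per plate to DMSO and 20 µM KKL-35 wells. Hits: activity one SD above the median; ≥2 biological repeats averaged.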
Consider `CCC(=O)NC(=S)Nc1ccc(NC(=O)c2cc(I)ccc2Cl)cc1` [KKL-1487], for which the “% activation” value is reported as 7%.

Regarding `CSCCC(=O)N1CCC(C(=O)Nc2cccc(-c3cccc(Cl)c3)c2)CC1` [KKL-1141], the “% activation” value is 0%. In the case of `CC(C)(C)c1ccc(-c2c[n+](-c3ccc(Br)cc3)c3n2CCCS3)cc1` [KKL-0949], the “% activation” value worked out at 0%. With `Cc1ccc(/N=C(\N)Nc2nc(C)cc(N3CCCCC3)n2)c(C)c1` [KKL-1617], the “% activation” value came to 0%. Turning to `CC(=O)Nc1ccc2cccc(O)c2n1` [KKL-0957], the “% activation” value amounted to 55%. With `O=C(Nc1ccc(Cl)cc1)c1cc2c(cc1O)[nH]c1ccccc12` [KKL-0896], the “% activation” value was 102%.

For the compound `CCOC(=O)CSc1nnc(-c2ccc([N+](=O)[O-])cc2)o1` [KKL-1633], the “% activation” value worked out at 0%. Regarding `COC(=O)COc1ccc(NC(=O)c2ccccc2F)cc1` [KKL-1387], the “% activation” value was 0%. The figure for `O=C(NCc1ccco1)c1cnn2c1NC(c1ccc(Br)cc1)CC2C(F)(F)F` (stereo not shown) [KKL-0962] is 14%; for `COC(=O)COc1ccc(NC(=O)COc2cccc(C)c2)cc1` [KKL-1504] it is 0%.

With `CC1(C)Oc2ccc3ccc(=O)oc3c2C(C=O)=C1Cl` [KKL-0786], the “% activation” value is on record as 0%. Regarding `C1=C(CN2CCC3(CC2)Nc2ccccc2-n2cccc23)COc2ccccc21` [KKL-1209], the “% activation” value came out at 7%. For `CCCc1ccc(S(=O)(=O)Nc2ccc(CN3CCN(CC4CC4)CC3)cc2)cc1` [KKL-1800], the “% activation” value is listed as 3%. Take `CCOC(=O)CSc1nnc(-c2cc(OC)c(OC)c(OC)c2)o1` [KKL-1514]: the “% activation” value is 0%. Next, `Cc1nc2sccn2c1C(=O)N1CCc2c([nH]c3ccccc23)C1c1ccc(F)cc1` (stereo not shown) [KKL-0488]: 4%; `COc1ccc(Cl)cc1NC(=O)CN1CCC(c2nc3cc(Cl)ccc3[nH]2)CC1` [KKL-0528]: 0%. Regarding `COc1ccc(-c2nc(-c3cccc(NC(=O)Cc4ccc(F)cc4)c3)no2)cc1OC` [KKL-1809], the “% activation” value amounted to 4%. The figure for `CC(C)(C)c1ccccc1OCCCON1C(=N)N=C(N)NC1(C)C` [KKL-1847] is 15%; for `N=C1SCC(=O)N1c1ncc(Cc2cccc(Cl)c2)s1` [KKL-1645] it is 2%; for `O=C(Nc1nc2c(Cl)cccc2s1)c1ccc([N+](=O)[O-])o1` [KKL-1312] it is 0%. The figure for `O=C(c1cc2c(s1)CCC2)N1CCN(Cc2ccc3c(c2)OCO3)CC1` [KKL-1851] is 0%.

For `CCCN(CCC)CC(O)Cn1cc(/C=C/C(=O)c2ccccc2)c2ccccc21` (stereo not shown) [KKL-1230], the “% activation” value is listed as 0%. Take `O=[N+]([O-])c1c(-n2cccn2)nn(-c2ccccc2)c1C(Cl)Cl` [KKL-1260]: the “% activation” value turned out to be 0%. Next, `COc1ccc2[nH]c(CN3CCC(O)(c4cccc(C)c4)CC3)c(C)c2c1` [KKL-0926]: 5%; `COC(=O)c1ccc(Oc2ccc(-c3csc(C)n3)cc2F)nn1` [KKL-1737]: 3%. The figure for `COc1cccc(-c2ccccc2NC(=O)C2CCN(Cc3cc4ccccc4[nH]3)CC2)c1` [KKL-1150] is 2%; for `CSc1ccccc1C(=O)Nc1nc(-c2ccccn2)cs1` [KKL-1845] it is 8%. As for `Cc1ccc2oc(C(=O)N3CCC(Oc4cccnc4)CC3)cc2c1` [KKL-0560], the “% activation” value came to 4%.

Take `CCCCNC(=O)c1cc2n(n1)C(C(F)(F)F)CC(c1ccccc1)N2` (stereo not shown) [KKL-1022]: the “% activation” value is listed as 3%. Next, `O=C(OCc1c(F)cccc1Cl)c1ccc(-n2ncc(Cl)c(Cl)c2=O)cc1` [KKL-1808]: 4%; `CCc1nc2ccccc2n1CC(O)COc1ccc(I)cc1` (stereo not shown) [KKL-0760]: 0%. `CC(C)c1ccc(Nc2nnc(SCC(=O)Nc3ncc(S(=O)(=O)c4ccc([N+](=O)[O-])cc4)s3)s2)cc1` [KKL-0852]: the “% activation” value came out at 1%. Turning to `Cc1cc(C)cc(Nc2c([N+](=O)[O-])nn(-c3cccc(Cl)c3)[n+]2[O-])c1` [KKL-1097], the “% activation” value turned out to be 4%. Consider `CC1CC(C)(C)Nc2ccc(N=O)cc21` (stereo not shown) [KKL-1625], for which the “% activation” value was 0%. With `CCOC(=O)C1CCCN(Cc2nc(-c3ccc(Cl)cc3)no2)C1` (stereo not shown) [KKL-0486], the “% activation” value was determined as 2%. The figure for `COCCN[C@H]1C[C@@H]2c3[nH]c4ccccc4c3C[C@@H](C(=O)OC)N2[C@H](c2ccc(C(F)(F)F)cc2)C1` [KKL-1595] is 0%; for `c1ccc(CN2CCC(Nc3nc(-c4cccs4)nc4ccccc34)CC2)cc1` [KKL-0797] it is 0%; for `COCc1nnc(NC(=O)c2nnn(-c3ccc(F)cc3)c2C)s1` [KKL-0929] it is 7%. The figure for `O=C1C=C(c2cccs2)C[C@H](c2ccccc2)[C@H]1n1nnc([N+](=O)[O-])n1` [KKL-1517] is 0%. Take `CCOC(=O)c1ccc(NC(S)=NCCN2CCc3ccccc3C2)cc1` [KKL-1583]: the “% activation” value is given as 0%. On to `COc1cc(Cc2cnc(N)nc2N)c2cnccc2c1N(C)C` [KKL-1753], for which the “% activation” value came out at 0%. Regarding `O=C(C[n+]1nc(CNc2ccc(Cl)cc2)n2c1CCCCC2)c1ccc(Br)cc1` [KKL-1021], the “% activation” value was 9%. In the case of `COC(=O)[C@@H]1Cc2c([nH]c3ccccc23)[C@H]2C[C@H](NCCN3CCOCC3)C[C@@H](c3ccc(Cl)c(F)c3)N21` [KKL-0314], the “% activation” value is recorded as 9%. In the case of `COc1ccccc1CN(CCCn1ccnc1)Cc1ccc(Cl)c(Cl)c1` [KKL-0327], the “% activation” value stood at 16%. For the compound `C=CCc1cc(C)ccc1OCCCn1ccnc1` [KKL-1274], the “% activation” value was found to be 0%. Turning to `Cc1ccc(C(=O)Nc2ccc([N+](=O)[O-])cc2)s1` [KKL-0604], the “% activation” value was found to be 0%.

Regarding `COC(=O)COc1ccc(NC(=O)c2cccc(C)c2)cc1` [KKL-1568], the “% activation” value is 0%.

With `COc1cc(OC)cc(C(=O)Nc2nc(-c3ccccc3)c(-c3ccccc3)o2)c1` [KKL-1025], the “% activation” value is 15%.

Regarding `O=S(=O)(Nc1cc(Br)c(O)c2ccccc12)c1ccc(F)cc1` [KKL-1482], the “% activation” value came out at 0%. With `CCCC(=O)NC(=S)Nc1ccc(N2CCN(C(=O)c3cccs3)CC2)c(Cl)c1` [KKL-0912], the “% activation” value turned out to be 0%. Turning to `Nc1ccccc1Nc1ccccc1` [KKL-0803], the “% activation” value is 4%. For the compound `O=C(Nc1ccc(OC(F)(F)F)cc1)Nc1cccc([N+](=O)[O-])c1` [KKL-1525], the “% activation” value is 0%. `NC1CCc2nc(-c3cccnc3)nc(Nc3ccc(C(F)(F)F)cc3)c2C1` (stereo not shown) [KKL-0526]: the “% activation” value was determined as 137%. As to `Cn1c(Sc2cnn(-c3ccccc3)c(=O)c2Br)nnc1-c1ccccc1` [KKL-0292], the “% activation” value is 0%.

With `CNc1snc(C)c1C(=O)NCCOc1ccc(OC)cc1` [KKL-1874], the “% activation” value is listed as 0%.

Turning to `CCCCCCCCCC(=NO)c1ccccn1` [KKL-1024], the “% activation” value is on record as 15%. Next, `COc1cc2ccccc2cc1C(=O)NCc1cccc(-c2ccccc2OC)c1` [KKL-1789]: 6%. As to `COc1ccc(CCNC(=O)C2(n3cnnn3)CCCCC2)cc1` [KKL-1856], the “% activation” value worked out at 3%. For `Cc1ccc(-n2cc(CN3CCC(CO)(Cc4cccc(C(F)(F)F)c4)CC3)cn2)cc1` [KKL-0651], the “% activation” value is reported as 0%. In the case of `CCC(C(=O)Nc1ccc(CC(=O)OC)cc1)c1ccccc1` (stereo not shown) [KKL-0614], the “% activation” value was 9%. Consider `CCOC(=O)COc1ccc(S(=O)(=O)Nc2c(C)cccc2CC)cc1` [KKL-1460], for which the “% activation” value is recorded as 0%.

Consider `C[C@H]1CN(C(=O)c2cc(-c3cccs3)on2)[C@@H](C)CN1Cc1ccco1` [KKL-0503], for which the “% activation” value is on record as 0%.

On to `CCOc1ccc2nc(NC(=O)c3ccccn3)sc2c1` [KKL-0810], for which the “% activation” value came out at 0%. With `CCCOC(=O)c1ccc(NC(=O)c2ccc(Br)o2)cc1` [KKL-1068], the “% activation” value amounted to 0%. For `CC(C)(C)c1cc(NCCCn2ccnc2)n2ncc(-c3ccc(Cl)cc3)c2n1` [KKL-1011], the “% activation” value is recorded as 9%. As for `COC(=O)[C@@H](NC(=O)c1cc(COc2cccc(C(F)(F)F)c2)on1)c1ccccc1` [KKL-1189], the “% activation” value is listed as 2%. With `Cc1nn2c(O)c3c(nc2c1-c1ccccc1)CCCC3` [KKL-1126], the “% activation” value was 0%. Take `CSc1ncc(C(=O)NC(C)c2ccc3c(c2)CCC3)cn1` (stereo not shown) [KKL-0694]: the “% activation” value is given as 5%. `OC(COc1ccc2ccccc2c1)CN1CCCN(CC(O)COc2ccc3ccccc3c2)CC1` (stereo not shown) [KKL-1527]: the “% activation” value is reported as 0%. For `O=C(Nc1ccccc1-c1nc(C2CCC2)cs1)OCC1CCNCC1` [KKL-1752], the “% activation” value came out at 2%. As for `COc1ccc(Nc2ncccc2N)cc1` [KKL-1693], the “% activation” value came out at 4%.

`COc1cccc(NC(=O)c2c(NC(=O)c3cccnc3)sc3c2CCC3)c1` [KKL-0594]: the “% activation” value turned out to be 0%.

As to `O=C(CSc1ccccc1)Nc1ccc(-c2nc3ccccc3c(=O)o2)cc1` [KKL-0595], the “% activation” value was determined as 1%. Next, `CCN1CCN(c2cc(C(C)(C)C)nc3c(-c4ccccc4)c(C)nn23)CC1` [KKL-1010]: 3%; `O=C(Nc1nnc(C2CC2)s1)c1ccccn1` [KKL-0945]: 0%; `O=C(Oc1ccccc1)c1ccc(S(=O)(=O)N2CCCCC2)cc1` [KKL-0581]: 2%. On to `COc1cccc(-c2ccccc2NC(=O)C2CCN(Cc3cccc(SC)c3)CC2)c1` [KKL-1175], for which the “% activation” value turned out to be 0%. The figure for `O=[N+]([O-])c1ccc(NC(S)=NCc2ccc(Cl)c(Cl)c2)cc1` [KKL-1540] is 0%; for `COC(=O)COc1ccc(NC(=O)c2ccccc2C)cc1` [KKL-1564] it is 0%; for `CCC(NC(=O)c1cnc(SC)nc1)c1ccc(F)cc1` (stereo not shown) [KKL-0704] it is 0%. With `CCOC(=O)c1cnc(-n2nc(C)cc2C)nc1Nc1ccc(N(C)C)cc1` [KKL-0889], the “% activation” value came to 0%.

Take `Cc1cc2ncn(CCOc3ccc(Cl)cc3)c2cc1C` [KKL-0400]: the “% activation” value turned out to be 2%.

`CCCCc1ccc(NC(=S)NC(=O)c2ccc(OCC)c(Cl)c2)cc1` [KKL-0311]: the “% activation” value is listed as 0%. On to `Cc1ccc(C(O)CN2CCC3(CC2)CC(O)c2cc(Cl)ccc2O3)cc1C` (stereo not shown) [KKL-0681], for which the “% activation” value came out at 0%.

In the case of `NS(=O)(=O)c1ccc(CCNc2ncnc3c2c(-c2ccccc2)cn3-c2ccc(F)cc2)cc1` [KKL-1049], the “% activation” value was 1%.
